Results taken from patent US5401725A, “Neovascularization inhibition by adenosine-5'-phosphosulfates” (Unitika Ltd., priority 1990, dated 1995).

Assay: toxicity in rats, parenteral administration
Assay type: in vivo, rat
Conditions: 500 to 3,500 mg/kg in 50% dimethylsulfoxide, I.V. or I.P.

Nc1ncnc2c1ncn2[C@@H]1O[C@H](COP(=O)(O)OS(=O)(=O)O)[C@@H](O)[C@H]1O [APS, adenosine 5'-phosphosulfate]
intoxication or lethality: no cases of intoxication or lethality
